Results are given in words; binding and its absence hold for the method and conditions named. Binding seen in cells or lysates may run through a third protein. Here binding means that the protein was enriched with, or labelled near, the bait; the list need not be complete.
B1: G3BP2, endogenous in HCT116 cells (protein, UniProt Q9UN86 1-482)
chain: MVMEKPSPLLVGREFVRQYYTLLNKAPEYLHRFYGRNSSYVHGGVDASGKPQEAVYGQNDIHHKVLSLNFSECHTKIRHVDAHATLSDGVVVQVMGLLSNSGQPERKFMQTFVLAPEGSVPNKFYVHNDMFRYEDEVFGDSEPELDEESEDEVEEEQEERQPSPEPVQENANSGYYEAHPVTNGIEEPLEESSHEPEPEPESETKTEELKPQVEEKNLEELEEKSTTPPPAEPVSLPQEPPKAFSWASVTSKNLPPSGTVSSSGIPPHVKAPVSQPRVEAKPEVQSQPPRVREQRPRERPGFPPRGPRPGRGDMEQNDSDNRRIIRYPDSHQLFVGNLPHDIDENELKEFFMSFGNVVELRINTKGVGGKLPNFGFVVFDDSEPVQRILIAKPIMFRGEVRLNVEEKKTRAARERETRGGGDDRRDIRRNDRGPGGPRGIVGGGMMRDRDGRGPPPRGGMAQKLGSGRGTGQMEGRFTGQRR
B2: EDC4, endogenous in HCT116 cells (protein, UniProt Q6P2E9 1-1401)
chain: MASCASIDIEDATQHLRDILKLDRPAGGPSAESPRPSSAYNGDLNGLLVPDPLCSGDSTSANKTGLRTMPPINLQEKQVICLSGDDSSTCIGILAKEVEIVASSDSSISSKARGSNKVKIQPVAKYDWEQKYYYGNLIAVSNSFLAYAIRAANNGSAMVRVISVSTSERTLLKGFTGSVADLAFAHLNSPQLACLDEAGNLFVWRLALVNGKIQEEILVHIRQPEGTPLNHFRRIIWCPFIPEESEDCCEESSPTVALLHEDRAEVWDLDMLRSSHSTWPVDVSQIKQGFIVVKGHSTCLSEGALSPDGTVLATASHDGYVKFWQIYIEGQDEPRCLHEWKPHDGRPLSCLLFCDNHKKQDPDVPFWRFLITGADQNRELKMWCTVSWTCLQTIRFSPDIFSSVSVPPSLKVCLDLSAEYLILSDVQRKVLYVMELLQNQEEGHACFSSISEFLLTHPVLSFGIQVVSRCRLRHTEVLPAEEENDSLGADGTHGAGAMESAAGVLIKLFCVHTKALQDVQIRFQPQLNPDVVAPLPTHTAHEDFTFGESRPELGSEGLGSAAHGSQPDLRRIVELPAPADFLSLSSETKPKLMTPDAFMTPSASLQQITASPSSSSSGSSSSSSSSSSSLTAVSAMSSTSAVDPSLTRPPEELTLSPKLQLDGSLTMSSSGSLQASPRGLLPGLLPAPADKLTPKGPGQVPTATSALSLELQEVEPLGLPQASPSRTRSPDVISSASTALSQDIPEIASEALSRGFGSSAPEGLEPDSMASAASALHLLSPRPRPGPELGPQLGLDGGPGDGDRHNTPSLLEAALTQEASTPDSQVWPTAPDITRETCSTLAESPRNGLQEKHKSLAFHRPPYHLLQQRDSQDASAEQSDHDDEVASLASASGGFGTKVPAPRLPAKDWKTKGSPRTSPKLKRKSKKDDGDAAMGSRLTEHQVAEPPEDWPALIWQQQRELAELRHSQEELLQRLCTQLEGLQSTVTGHVERALETRHEQEQRRLERALAEGQQRGGQLQEQLTQQLSQALSSAVAGRLERSIRDEIKKTVPPCVSRSLEPMAGQLSNSVATKLTAVEGSMKENISKLLKSKNLTDAIARAAADTLQGPMQAAYREAFQSVVLPAFEKSCQAMFQQINDSFRLGTQEYLQQLESHMKSRKAREQEAREPVLAQLRGLVSTLQSATEQMAATVAGSVRAEVQHQLHVAVGSLQESILAQVQRIVKGEVSVALKEQQAAVTSSIMQAMRSAAGTPVPSAHLDCQAQQAHILQLLQQGHLNQAFQQALTAADLNLVLYVCETVDPAQVFGQPPCPLSQPVLLSLIQQLASDLGTRTDLKLSYLEEAVMHLDHSDPITRDHMGSVMAQVRQKLFQFLQAEPHNSLGKAARRLSLMLHGLVTPSLP

The chains behind the UniProt entries cited, without tags or fusion partners.
UniProt O00425: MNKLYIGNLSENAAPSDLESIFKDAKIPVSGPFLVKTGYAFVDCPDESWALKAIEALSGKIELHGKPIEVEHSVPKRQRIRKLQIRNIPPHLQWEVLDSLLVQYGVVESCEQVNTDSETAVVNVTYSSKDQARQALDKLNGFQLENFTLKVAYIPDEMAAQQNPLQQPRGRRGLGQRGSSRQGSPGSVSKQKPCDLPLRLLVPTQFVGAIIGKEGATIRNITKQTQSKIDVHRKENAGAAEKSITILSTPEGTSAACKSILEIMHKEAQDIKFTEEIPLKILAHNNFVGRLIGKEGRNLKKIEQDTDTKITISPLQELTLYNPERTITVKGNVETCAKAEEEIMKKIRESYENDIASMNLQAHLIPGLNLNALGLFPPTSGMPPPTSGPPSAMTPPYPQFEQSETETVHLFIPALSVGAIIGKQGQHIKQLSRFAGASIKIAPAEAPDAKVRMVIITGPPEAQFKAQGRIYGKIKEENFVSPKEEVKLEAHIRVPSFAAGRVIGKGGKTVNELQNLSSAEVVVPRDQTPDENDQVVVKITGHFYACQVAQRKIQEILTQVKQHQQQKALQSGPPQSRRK
UniProt Q9UKV8: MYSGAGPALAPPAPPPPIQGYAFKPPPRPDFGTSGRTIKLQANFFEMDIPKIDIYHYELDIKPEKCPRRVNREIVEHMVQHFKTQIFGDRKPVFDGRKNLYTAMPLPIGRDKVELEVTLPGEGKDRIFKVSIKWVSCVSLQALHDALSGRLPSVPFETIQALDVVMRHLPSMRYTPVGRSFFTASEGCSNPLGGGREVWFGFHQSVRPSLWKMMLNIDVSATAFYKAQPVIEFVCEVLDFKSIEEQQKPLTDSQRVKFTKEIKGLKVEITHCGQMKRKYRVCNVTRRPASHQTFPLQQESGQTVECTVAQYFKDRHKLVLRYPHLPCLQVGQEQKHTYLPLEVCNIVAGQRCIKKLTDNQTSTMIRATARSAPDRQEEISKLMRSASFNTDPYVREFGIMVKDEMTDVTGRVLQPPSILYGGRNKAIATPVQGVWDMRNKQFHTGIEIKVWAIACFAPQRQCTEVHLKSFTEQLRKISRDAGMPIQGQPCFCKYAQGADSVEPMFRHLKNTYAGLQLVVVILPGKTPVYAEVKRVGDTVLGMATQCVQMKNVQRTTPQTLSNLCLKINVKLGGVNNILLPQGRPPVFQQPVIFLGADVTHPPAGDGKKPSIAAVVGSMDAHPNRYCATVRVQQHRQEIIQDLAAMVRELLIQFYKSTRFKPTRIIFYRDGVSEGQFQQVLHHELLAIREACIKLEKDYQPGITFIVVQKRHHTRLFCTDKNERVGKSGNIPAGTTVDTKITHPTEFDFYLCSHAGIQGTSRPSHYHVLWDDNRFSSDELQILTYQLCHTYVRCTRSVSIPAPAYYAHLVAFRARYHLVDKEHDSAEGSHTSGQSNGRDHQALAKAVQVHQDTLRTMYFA
UniProt Q96F86: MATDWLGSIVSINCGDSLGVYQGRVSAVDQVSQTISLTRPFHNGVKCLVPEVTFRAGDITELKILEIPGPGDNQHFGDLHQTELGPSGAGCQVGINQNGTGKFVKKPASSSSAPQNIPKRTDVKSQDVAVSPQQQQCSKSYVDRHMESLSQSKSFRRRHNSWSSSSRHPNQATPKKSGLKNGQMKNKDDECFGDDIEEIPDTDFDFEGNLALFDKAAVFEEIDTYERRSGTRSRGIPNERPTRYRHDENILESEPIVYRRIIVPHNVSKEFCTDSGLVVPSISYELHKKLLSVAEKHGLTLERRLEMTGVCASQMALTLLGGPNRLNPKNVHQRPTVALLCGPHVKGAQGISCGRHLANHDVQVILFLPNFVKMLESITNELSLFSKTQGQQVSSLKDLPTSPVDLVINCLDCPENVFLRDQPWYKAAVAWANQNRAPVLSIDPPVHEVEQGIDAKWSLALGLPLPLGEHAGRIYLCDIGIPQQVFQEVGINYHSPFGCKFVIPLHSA
UniProt P51114: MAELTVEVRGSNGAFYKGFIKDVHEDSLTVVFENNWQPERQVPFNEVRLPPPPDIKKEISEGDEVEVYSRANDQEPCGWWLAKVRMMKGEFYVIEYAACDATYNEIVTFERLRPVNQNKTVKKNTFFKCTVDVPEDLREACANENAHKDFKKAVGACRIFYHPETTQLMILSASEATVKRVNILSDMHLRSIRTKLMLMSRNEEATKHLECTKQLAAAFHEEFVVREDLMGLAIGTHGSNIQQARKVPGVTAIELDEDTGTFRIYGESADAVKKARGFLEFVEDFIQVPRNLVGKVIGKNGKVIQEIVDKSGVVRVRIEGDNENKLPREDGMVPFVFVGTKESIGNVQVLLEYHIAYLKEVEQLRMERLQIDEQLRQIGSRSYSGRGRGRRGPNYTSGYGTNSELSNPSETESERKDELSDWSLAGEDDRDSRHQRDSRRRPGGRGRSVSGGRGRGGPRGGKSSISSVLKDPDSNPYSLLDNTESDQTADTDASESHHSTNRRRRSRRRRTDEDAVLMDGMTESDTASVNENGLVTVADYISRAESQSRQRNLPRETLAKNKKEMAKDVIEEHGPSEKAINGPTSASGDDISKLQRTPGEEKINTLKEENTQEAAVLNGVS
UniProt P51116: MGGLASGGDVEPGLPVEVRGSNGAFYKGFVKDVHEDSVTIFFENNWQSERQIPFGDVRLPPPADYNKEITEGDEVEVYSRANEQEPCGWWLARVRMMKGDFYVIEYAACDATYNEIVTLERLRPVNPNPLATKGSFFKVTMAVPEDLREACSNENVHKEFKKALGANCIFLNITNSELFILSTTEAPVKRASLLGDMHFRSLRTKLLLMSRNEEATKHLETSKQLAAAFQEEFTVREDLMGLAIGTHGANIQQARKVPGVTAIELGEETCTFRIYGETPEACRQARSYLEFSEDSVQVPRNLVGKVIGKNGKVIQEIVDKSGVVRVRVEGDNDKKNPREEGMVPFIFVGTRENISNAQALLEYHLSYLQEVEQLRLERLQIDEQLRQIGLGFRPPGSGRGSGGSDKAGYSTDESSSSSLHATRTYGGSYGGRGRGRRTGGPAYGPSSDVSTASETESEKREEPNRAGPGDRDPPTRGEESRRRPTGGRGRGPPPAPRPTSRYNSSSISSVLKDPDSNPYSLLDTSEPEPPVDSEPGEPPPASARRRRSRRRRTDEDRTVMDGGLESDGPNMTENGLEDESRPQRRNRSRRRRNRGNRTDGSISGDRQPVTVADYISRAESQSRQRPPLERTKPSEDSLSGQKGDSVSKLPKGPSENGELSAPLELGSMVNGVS
UniProt Q15717: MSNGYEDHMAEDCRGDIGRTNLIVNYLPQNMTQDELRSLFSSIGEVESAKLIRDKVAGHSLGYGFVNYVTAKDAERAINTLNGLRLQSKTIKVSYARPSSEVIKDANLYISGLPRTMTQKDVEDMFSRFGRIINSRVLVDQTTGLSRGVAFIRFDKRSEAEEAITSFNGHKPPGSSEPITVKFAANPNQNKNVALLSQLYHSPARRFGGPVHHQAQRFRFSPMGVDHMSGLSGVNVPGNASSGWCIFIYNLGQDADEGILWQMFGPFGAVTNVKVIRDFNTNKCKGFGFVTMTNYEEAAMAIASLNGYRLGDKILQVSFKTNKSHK
UniProt P61326: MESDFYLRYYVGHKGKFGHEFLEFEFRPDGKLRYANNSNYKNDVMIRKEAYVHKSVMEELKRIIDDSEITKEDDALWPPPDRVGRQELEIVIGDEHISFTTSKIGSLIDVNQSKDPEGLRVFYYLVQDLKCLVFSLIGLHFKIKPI
UniProt P11940: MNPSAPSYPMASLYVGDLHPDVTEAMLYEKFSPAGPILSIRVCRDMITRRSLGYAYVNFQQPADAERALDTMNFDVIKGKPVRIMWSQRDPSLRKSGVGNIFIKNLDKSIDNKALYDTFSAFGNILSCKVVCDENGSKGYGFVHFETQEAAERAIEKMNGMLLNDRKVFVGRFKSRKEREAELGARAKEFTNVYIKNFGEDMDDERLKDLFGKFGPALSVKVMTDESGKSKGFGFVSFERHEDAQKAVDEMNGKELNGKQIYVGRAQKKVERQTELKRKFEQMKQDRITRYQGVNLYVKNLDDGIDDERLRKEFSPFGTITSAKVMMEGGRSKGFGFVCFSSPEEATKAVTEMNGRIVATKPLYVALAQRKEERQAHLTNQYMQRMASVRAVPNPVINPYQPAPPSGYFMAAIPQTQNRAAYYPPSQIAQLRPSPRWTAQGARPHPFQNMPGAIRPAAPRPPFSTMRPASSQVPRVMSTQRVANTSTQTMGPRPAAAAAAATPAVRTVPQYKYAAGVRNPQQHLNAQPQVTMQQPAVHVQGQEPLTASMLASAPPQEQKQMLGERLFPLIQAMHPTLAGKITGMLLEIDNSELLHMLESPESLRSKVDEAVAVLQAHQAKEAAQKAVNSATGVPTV
UniProt Q8IZH2: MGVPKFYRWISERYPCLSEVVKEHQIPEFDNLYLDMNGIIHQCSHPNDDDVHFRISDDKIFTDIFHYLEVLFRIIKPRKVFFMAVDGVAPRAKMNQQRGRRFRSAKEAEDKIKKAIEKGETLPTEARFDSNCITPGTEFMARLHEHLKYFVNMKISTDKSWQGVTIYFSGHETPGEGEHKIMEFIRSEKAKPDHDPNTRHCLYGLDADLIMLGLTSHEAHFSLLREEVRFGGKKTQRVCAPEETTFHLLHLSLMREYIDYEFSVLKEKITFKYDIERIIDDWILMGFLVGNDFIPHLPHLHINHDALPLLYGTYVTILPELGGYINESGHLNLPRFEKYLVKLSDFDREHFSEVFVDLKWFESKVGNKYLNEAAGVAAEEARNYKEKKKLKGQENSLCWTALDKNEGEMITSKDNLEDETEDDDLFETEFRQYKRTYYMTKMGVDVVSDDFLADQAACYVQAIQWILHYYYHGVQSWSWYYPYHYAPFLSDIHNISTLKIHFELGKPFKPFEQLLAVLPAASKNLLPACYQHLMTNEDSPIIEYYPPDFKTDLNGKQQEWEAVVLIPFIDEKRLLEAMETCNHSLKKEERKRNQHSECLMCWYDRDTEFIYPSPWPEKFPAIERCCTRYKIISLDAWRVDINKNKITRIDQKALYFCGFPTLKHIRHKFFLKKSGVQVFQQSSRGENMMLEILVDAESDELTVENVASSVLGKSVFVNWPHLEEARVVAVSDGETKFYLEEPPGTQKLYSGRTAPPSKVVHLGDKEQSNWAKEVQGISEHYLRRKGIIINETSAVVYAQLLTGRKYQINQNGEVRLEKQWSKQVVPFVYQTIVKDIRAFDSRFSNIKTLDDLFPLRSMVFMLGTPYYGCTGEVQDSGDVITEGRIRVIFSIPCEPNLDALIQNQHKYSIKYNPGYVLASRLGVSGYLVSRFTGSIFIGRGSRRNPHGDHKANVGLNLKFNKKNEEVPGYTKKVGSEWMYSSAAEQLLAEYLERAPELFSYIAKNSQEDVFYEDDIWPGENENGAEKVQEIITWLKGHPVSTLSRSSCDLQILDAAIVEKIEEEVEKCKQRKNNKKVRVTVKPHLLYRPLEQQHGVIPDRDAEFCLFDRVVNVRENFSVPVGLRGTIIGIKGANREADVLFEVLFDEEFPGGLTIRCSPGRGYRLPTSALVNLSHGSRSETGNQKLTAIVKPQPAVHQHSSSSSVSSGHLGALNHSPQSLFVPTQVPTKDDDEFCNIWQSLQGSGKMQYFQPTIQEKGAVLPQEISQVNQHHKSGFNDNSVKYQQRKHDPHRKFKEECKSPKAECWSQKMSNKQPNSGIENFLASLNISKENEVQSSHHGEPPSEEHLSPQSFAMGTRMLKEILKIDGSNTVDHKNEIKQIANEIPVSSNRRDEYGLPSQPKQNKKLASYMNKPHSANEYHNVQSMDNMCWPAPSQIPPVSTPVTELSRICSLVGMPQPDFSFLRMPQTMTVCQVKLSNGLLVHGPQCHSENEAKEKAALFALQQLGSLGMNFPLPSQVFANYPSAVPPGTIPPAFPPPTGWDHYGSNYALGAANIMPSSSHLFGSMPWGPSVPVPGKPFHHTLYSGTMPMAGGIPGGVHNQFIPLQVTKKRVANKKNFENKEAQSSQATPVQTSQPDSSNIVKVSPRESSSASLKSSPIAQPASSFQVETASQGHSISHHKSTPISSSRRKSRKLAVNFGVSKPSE
UniProt P67809: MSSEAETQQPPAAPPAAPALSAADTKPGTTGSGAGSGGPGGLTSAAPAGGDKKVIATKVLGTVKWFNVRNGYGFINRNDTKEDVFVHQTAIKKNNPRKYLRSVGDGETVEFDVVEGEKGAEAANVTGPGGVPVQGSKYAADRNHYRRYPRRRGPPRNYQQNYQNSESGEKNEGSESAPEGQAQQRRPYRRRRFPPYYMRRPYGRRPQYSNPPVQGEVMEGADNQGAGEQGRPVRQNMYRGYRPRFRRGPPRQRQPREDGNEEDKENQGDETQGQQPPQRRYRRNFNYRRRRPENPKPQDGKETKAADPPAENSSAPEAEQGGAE

Target: IGF2BP3 (insulin-like growth factor 2 mRNA-binding protein 3), endogenous in HCT116 cells (human (endogenous in HCT116)) (UniProt O00425)
Test: affinity purification with mass spectrometry; endogenous IGF2BP3 immunoprecipitated from HCT116 WT lysate (Proteintech 14642-1-AP on protein G Dynabeads; IgG control); 25 mM HEPES pH 7.3, 150 mM NaCl, 0.5% NP-40; cells treated with DMSO or TM 5 µg/mL 4 h; with or without RNase I and RNase T1 in the second wash; label-free quantification

binding, binds:
AGO2, endogenous in HCT116 cells (from UniProt Q9UKV8 1-859)
DCP2, endogenous in HCT116 cells (from UniProt Q8IU60 1-420)
EDC3, endogenous in HCT116 cells (from UniProt Q96F86 1-508)
FXR1, endogenous in HCT116 cells (from UniProt P51114 1-621)
FXR2, endogenous in HCT116 cells (from UniProt P51116 1-673)
G3BP1, endogenous in HCT116 cells (from UniProt Q13283 1-466)
HuR (ELAVL1), endogenous in HCT116 cells (from UniProt Q15717 1-326)
MAGOH, endogenous in HCT116 cells (from UniProt P61326 1-146)
PABPC1, endogenous in HCT116 cells (from UniProt P11940 1-636)
XRN1, endogenous in HCT116 cells (from UniProt Q8IZH2 1-1706)
YBX1, endogenous in HCT116 cells (from UniProt P67809 1-324)

Target: IGF2BP3 (insulin-like growth factor 2 mRNA-binding protein 3), endogenous in HCT116 cells (human (endogenous in HCT116)) (UniProt O00425)
Test: as above
Remark: another data set of the same source

binding, binds:
B1
B2

Source: paper PMC13431160
